Laboratory results as given in PubChem BioAssay AID504444 (National Center for Advancing Translational Sciences (NCATS), 2011).
Among all 360,000 compounds or so, about 7,500 (2.1%) were called active. The inconclusive results got no clear call from the source; some entries with a clear call stand among them for comparison. The call rests on the fitted dose curve; in most records, active means well fitted inhibition curve with a large enough effect; inconclusive means small, poorly fitted or top-dose-only effect, or effect the other way; inactive means flat fitted curve, though single readings scatter. Potencies of inconclusive entries are doubtful fits and often do not repeat.

Assay: Nrf2 qHTS screen for inhibitors; further: nearly all actives have a fitted effect of over 60% in size
Conditions: A549 ARE-Fluc reporter, luciferase luminescence, 18-24 h; series mostly up to 46 µM
Method in brief: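 Cells were seeded and rested 2 h, then exposed to compounds for 18-24 h. CellTiter-Fluor was read first as a viability measure. BugLite was added 15 min before the final luminescent read of ARE-luciferase activity in A549 cells.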
Potency means the concentration at half of the fitted maximal effect.

Row | SMILES | Potency
1 | Oc1c(/C=N/Nc2cccc3cccnc23)ccc2ccccc12 | inconclusive: 16.4 µM [activator, single point]
2 | Cc1nn2c(-c3ccco3)ccnc2c1-c1ccc(Cl)cc1 | inconclusive: 2.06 µM [activator, full curve]
3 | COc1ccc(C(=O)Nc2ccc3oc(-c4cc(Cl)ccc4Cl)nc3c2)cc1Br | inconclusive: 1.64 µM [falling, partial curve, poor fit]
4 | Cc1occc1C(=O)Nc1nnc(C2CCCCC2)s1 | inconclusive: 4.11 µM [activator, full curve]
5 | C(=C\c1ccccc1)/CSc1nc2ncccc2[nH]1 | inconclusive: 23.1 µM [activator, partial curve]
6 | CC(=O)N1CCc2cc(S(=O)(=O)NC(Cc3ccccc3)C(=O)Nc3ccc(C)cc3C)ccc21 (stereo not drawn) | inconclusive: 29.1 µM [falling, single point]
7 | CCCOc1ccc(C(=O)Nc2ccccc2[N+](=O)[O-])cc1 | inconclusive: 16.4 µM [activator, single point]
8 | CCOC(=O)c1c(NC(=O)c2ccn(CC)n2)sc2c1CCCC2 | inconclusive: 23.1 µM [falling, single point]
9 | O=C(CSc1ccccc1)NCc1ccccc1 | inconclusive: 32.6 µM [activator, single point]
10 | Cc1ccc(NC(=O)Nc2cccs2)c(C)c1 | inconclusive: 5.8 µM [activator, single point]
11 | Cc1ccc(NC(=O)Cc2ccccc2Cl)cc1S(=O)(=O)N(C)C | inconclusive: 32.6 µM [falling, partial curve, poor fit]
12 | CN(CCCNC(=O)c1cc2c(=O)n(C)c3ccccc3c2s1)Cc1ccccc1 | inactive
13 | O=C(Cn1c(=O)n(-c2ccccc2)c(=O)c2ccc(C(=O)NCc3ccc4c(c3)OCO4)cc21)Nc1ccc(F)c(Cl)c1 | inconclusive: 29.1 µM [falling, single point]
14 | O=C(c1cccc2ccccc12)N1CCN(CC2CC=CCC2)CC1 (stereo not drawn) | inconclusive: 20.6 µM [falling, single point]
15 | CCOC(=O)c1ccc(NC(=O)N2CCCCC2)cc1 | inconclusive: 1.84 µM [activator, full curve, poor fit]
16 | N=c1nc(-c2ccccc2)n(-c2ccccc2)s1 | inactive
17 | O=C(N/N=C/c1ccc(O)c2ncccc12)c1cccc(Br)c1 | inactive
18 | O=C(CCNC(=O)c1ccccc1Cl)Nc1nc(-c2ccc(F)cc2)cs1 | inconclusive: 16.4 µM [falling, single point]
19 | O=C(Nc1nc2ccc([N+](=O)[O-])cc2s1)c1ccc(S(=O)(=O)N2CCCc3ccccc32)cc1 | inconclusive: 2.59 µM [falling, full curve, poor fit]
20 | CN(C)CCNc1oc(-c2cccc(Cl)c2)nc1C#N | inactive
21 | CN(CC(=O)Nc1ccc2c(c1)OCO2)S(=O)(=O)c1cccs1 | inconclusive: 16.4 µM [activator, partial curve, poor fit]
22 | COc1ccc(N2CCN(C(=O)c3ccc(N4CCCCS4(=O)=O)cc3)CC2)cc1 | inconclusive: 29.1 µM [falling, partial curve, poor fit]

Row | SMILES | Potency
23 | COc1ccc(C2=NOC(C(=O)N(C)Cc3ccccc3)C2)cc1 (stereo not drawn) | inconclusive: 4.61 µM [activator, partial curve]
24 | COc1ccc(CCNC(=O)Cn2nnc(C(=O)Nc3cc(C)ccc3C)c2N)cc1OC | inconclusive: 16.4 µM [falling, single point]
25 | CCCc1c(C(=O)OCC)sc(N)c1C#N | inconclusive: 6.51 µM [activator, single point]
26 | CCCCN(Cc1ccco1)S(=O)(=O)c1ccc(-c2ccc(=O)[nH]n2)s1 | inconclusive: 5.8 µM [falling, partial curve, poor fit]
27 | Cc1nn(CC(=O)Nc2ccc3c(c2)OCCO3)c(C)c1[N+](=O)[O-] | inactive
28 | O=C(CSc1nc2cc(Cl)ccc2s1)NCC1CCCO1 (stereo not drawn) | active: 11.6 µM
29 | O=C(NCc1cccnc1)C(=O)NCC(c1ccco1)N1CCN(c2ccccc2F)CC1 (stereo not drawn) | inactive
30 | CCOC(=O)c1cc(C)n(Cc2cccc(OC)c2OC)c1C | active: 23.1 µM
31 | COc1ccc(OC(=O)C(C)N2C(=O)c3ccccc3C2=O)cc1 (stereo not drawn) | inactive
32 | CCN(CC(=O)NCCc1ccc(S(N)(=O)=O)cc1)Cc1nc2ccccc2c(=O)[nH]1 | inconclusive: 18.4 µM [activator, partial curve, poor fit]
33 | N#Cc1ccccc1NC(=O)CSc1nnc(-c2ccccc2O)n1-c1ccccc1 | inconclusive: 23.1 µM [falling, partial curve, poor fit]
34 | Cc1ccc(-c2nn3c(C)nnc3s2)cc1NCc1c(F)cccc1Cl | inactive
35 | Cc1ccn2cc(C(=O)Nc3ccc4c(c3)OCCO4)nc2c1 | inconclusive: 0.291 µM [activator, full curve]
36 | Cc1ccc(Cl)cc1NC(=O)CSCc1cnn(-c2ccccc2)c1-n1cccc1 | inconclusive: 23.1 µM [falling, single point]
37 | CC(Cc1cccs1)NC(=O)c1cccc(Cl)c1 (stereo not drawn) | inconclusive: 6.51 µM [activator, partial curve, poor fit]
38 | COc1cc2ccccc2cc1C(=O)NCC(c1cccs1)N(C)C (stereo not drawn) | inconclusive: 14.6 µM [activator, partial curve, poor fit]
39 | CCCCn1c(SCc2ncc(-c3ccccc3)o2)nc2cc(S(N)(=O)=O)ccc21 | active: 14.6 µM
40 | Cc1cccc(NS(=O)(=O)c2ccc3c(c2)CCN3C(=O)C2CC2)c1C | inconclusive: 23.1 µM [falling, single point]
41 | CN1CCN(C(=O)c2ccc3c(c2)N(Cc2ccc(Cl)cc2)C(=O)c2ccccc2S3(=O)=O)CC1 | inactive
42 | O=c1[nH]c(NCCO)nnc1Cc1ccccc1 | inconclusive: 0.259 µM [falling, full curve, poor fit]
43 | COc1ccc(NC(=O)Cn2nc(C(F)(F)F)c3c2CCCC3)c(OC)c1 | inconclusive: 3.66 µM [falling, partial curve, poor fit]

Reformatted field by field: part of the list above.
Cc1ccc(-c2nn3c(C)nnc3s2)cc1NCc1c(F)cccc1Cl
  Potency: inactive
Cc1ccn2cc(C(=O)Nc3ccc4c(c3)OCCO4)nc2c1
  Potency: inconclusive: 0.291 µM [activator, full curve]
Cc1ccc(Cl)cc1NC(=O)CSCc1cnn(-c2ccccc2)c1-n1cccc1
  Potency: inconclusive: 23.1 µM [falling, single point]
